For at least one entry, the source does not settle the construct or the ends of the probe. For some of these results: A negative result means that nothing was seen under these conditions. For some of these results: A weaker result is weaker than the reference pair of the same experiment.

Series [1] has as its system MBP-BrpNAC895 (Brassica parachinensis). Put plainly: EMSA. To be noted: EMSA/Gel-Shift kit (Beyotime) per manufacturer, pH and temperature not stated, recombinant protein, protein details: MBP (pMAL c5x). (A gel shift assay detects complexes by their altered migration in electrophoresis.)
Series [2] deals with MBP-BrpABI449 (Brassica parachinensis). The series is described as follows: EMSA. As to conditions: EMSA/Gel-Shift kit (Beyotime) per manufacturer; pH and temperature not stated; recombinant protein; protein details: MBP (pMAL c5x).

Turning to “GCTAGCACCTTCAGTAATGCACGTTAATAGACTTTTGGTT (double strand) [BrpHMA2 promoter probe 1 (pF1 locus)]”, the binding result in series [1] is given as “binds”; in series [1] (preincubated with increasing MBP-BrpABI449, 6 h at 4 C) it was “binds more weakly”; in series [2] it was “no binding”.

On to “TATGCCTGCCTAAAACCGTGACCCATCGAACAAGTTCTCT (double strand) [BrpHMA2 promoter probe 2 (pF2 locus)]”, for which the binding result in series [1] and in series [2] was “binds” throughout.

On to “CATATCTTCGACACGTTACGTGCATTTCCCCAAGACAT (double strand) [BrpHMA2 promoter probe 3 (pF3 locus)]”, for which the binding result in series [1] and in series [2] was “binds” throughout.

These data come from article PMC9045254.
